pEC50: −log10 of the molar value. For at least one compound, name, drawing or mass did not settle the structure.
Tests used:
[1] = tested on: HCV subgenomic RNA replicon of genotype 1b in Huh7^A2HCV^Rep cells; assay: Luciferase activity assay, HCV replicon in vitro replication; format: cell-based, hepatitis C virus; details: 500 nM to 5000 nM; all time-points
From the text: A hepatoma cell line (Huh7-Lunet) designated Lunet-HlaA2-luc/neoET (Huh7^A2HCV^Rep) and Lunet-HlaA2 (Huh7^A2) were kindly provided by Dr. Volker Lohmann (UniversitätsKlinikum Heidelberg, Molekulare Virologie). The Lunet-HlaA2-luc/neoET expressed ectopically HLA-A2 and a selectable HCV subgenomic RNA replicon of genotype 1b harboring replication-enhancing mutations in NS3 and NS4 (Con1-ET). The replicon also expresses the selectable marker neomycin phosphotransferase, which inactivates the cytotoxic drug G418. The expression of non-structural proteins was driven by the encephalomyocarditis virus IRES (Robinson, M., Yang, H., Peng B. et al. 2010. Antimicrobial Agents and Chemotherapy. 54(8):3099-3106; Pasetto, A., Frelin, L. et al. 2012. J immunol. 189:4510-4519). The replicon cells expressed the firefly luciferase gene fused to the selectable marker by ubiquitin. […]
At time-points 24, 48, 72 and 96 hours post-addition of inhibitors, culture plates were removed from incubator into laminar flow hood and an equal volume of Luciferase assay reagent to that of the culture medium in each well was added. Three minutes were allowed for complete cell lysis, and subsequently the luminescence was measured. Absorbance and luminescence were read by Infinite 200 PRO reader (Tecan Group Ltd, Maennedorf, Switzerland).
The HCV in vitro replication was quantified by measuring the reporter gene expression. […]

HCV = details: in vitro and in vivo studies, other studies; read-out: 50% effective concentration (EC50); cited from earlier work

For CC(C)(C)NC(=O)N[C@H](C(=O)N1C[C@H]2[C@@H]([C@H]1C(=O)NC(CC1CCC1)C(=O)C(N)=O)C2(C)C)C(C)(C)C (some centres unmarked) [Boceprevir], the luciferase activity [1] is listed as “efficiently inhibited” and the pEC50 (HCV) is listed as 6.70.
